PubChem BioAssay AID256 (DTP/NCI, 2004)
The list shows only some results of the screen, not a fair sample: it gathers tests that were run many times, whatever their T/C, doses with no T/C, and many T/C values between a quarter and a half above the control. Further doses and runs are listed elsewhere. T/C gives the treated animals as a percentage of the vehicle group. Some doses have a count of surviving animals in place of a T/C: the source holds a T/C of zero for them, seemingly a mark for toxic or unscored doses. Some doses without a T/C left all or most animals alive at the check, yet need not have been tolerated: survival well below the control is almost never listed, so the zero probably covers shortened survival too. Counts of survivors are from the toxicity check (mostly the fifth day) where no day follows; animals may have died later. Schedule codes are those of the source, read here as Q, the interval in days (D) or hours (H), X, the number of doses. Some entries hold several experiments; the values are given in rising order. Where survival is the endpoint, this PubChem deposit counts one and a half times the control or more as active, and values a quarter to a half above the control carry no call in these data; other NCI protocols may use other cut-offs. Marks such as (2×) stand for listed records that agree. Some T/C values are followed by the survivors on the day toxicity was checked, most often the fifth; where none is given, no animal had died by that day.

System: CD2F1 mice, L1210 leukemia ip, survival T/C
Experiment: NCI In Vivo Anticancer Drug Screen. Data for tumor model L1210 Leukemia (intraperitoneal) in CD2F1 (CDF1) mice
Conditions: higher T/C = longer survival
Method in brief: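 Compound-dosed mice with transplantable tumor versus matched vehicle controls; endpoint ratio T/C reported.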

[1] = T/C endpoint: mean survival time, dose: 100.0 mg/kg/injection, schedule: Q01DX009 (ip), vehicle: saline with Tween-80
[2] = T/C endpoint: mean survival time, dose: 400.0 mg/kg/injection, schedule: Q01DX001 (ip), vehicle: saline with Tween-80
[3] = T/C endpoint: mean survival time, dose: 12.5 mg/kg/injection, schedule: Q01DX009 (ip), vehicle: saline with Tween-80
[4] = T/C endpoint: mean survival time, dose: 12.5 mg/kg/injection, schedule: Q01DX009 (ip), vehicle: saline
[5] = T/C endpoint: mean survival time, dose: 25.0 mg/kg/injection, schedule: Q01DX009 (ip), vehicle: saline
[6] = T/C endpoint: mean survival time, dose: 50.0 mg/kg/injection, schedule: Q01DX009 (ip), vehicle: saline
[7] = T/C endpoint: mean survival time, dose: 400.0 mg/kg/injection, schedule: Q01DX001 (ip), vehicle: saline
[8] = T/C endpoint: mean survival time, dose: 200.0 mg/kg/injection, schedule: Q01DX009 (ip), vehicle: saline with Tween-80
[9] = T/C endpoint: mean survival time, dose: 400.0 mg/kg/injection, schedule: Q04DX003 (ip), vehicle: saline
[10] = T/C endpoint: mean survival time, dose: 6.25 mg/kg/injection, schedule: Q01DX009 (ip), vehicle: saline with Tween-80
[11] = T/C endpoint: mean survival time, dose: 200.0 mg/kg/injection, schedule: Q01DX009 (ip), vehicle: saline
[12] = T/C endpoint: mean survival time, dose: 800.0 mg/kg/injection, schedule: Q01DX009 (ip), vehicle: saline

SMILES: O=[N+]([O-])c1ccc(S(=O)(=O)C/C=C/CCl)c([N+](=O)[O-])c1
- survivor count [1]: 3 of 6
- survivor count (T/C endpoint: mean survival time, dose: 200.0 mg/kg/injection, schedule: Q01DX001 (ip), vehicle: saline with Tween-80): 2 of 6
- survivor count [2]: 1 of 6

SMILES: CN(C)CCN(Cc1ccc(Cl)cc1)c1ccccn1
- survivor count [3]: 0 of 3
- survivor count [4]: 1 of 3
- survivor count [5]: 0 of 3
- survivor count [6]: 0 of 3

SMILES: O=C(/C=C/C=C/c1ccccc1)c1ccc(Cl)cc1
- survivor count (T/C endpoint: mean survival time, dose: 132.0 mg/kg/injection, schedule: Q04DX003 (ip), vehicle: saline with Tween-80): 6 of 6

SMILES: c1ccc(CNCCCNCc2ccccn2)nc1
- survivor count [7]: 0 of 6

SMILES: CC(/C=C/c1ccccc1)=Nc1ccccc1
- survivor count (T/C endpoint: median survival time, dose: 400.0 mg/kg/injection, schedule: Q01DX009 (ip), vehicle: saline with Tween-80): 0 of 6

SMILES: O=C1c2ccccc2C(=O)N1CNc1ccc(Cl)cn1
- survivor count [8]: 6 of 6

SMILES: CC[n+]1ccc(Cc2ccc([N+](=O)[O-])cc2)cc1
- survivor count (T/C endpoint: mean survival time, dose: 200.0 mg/kg/injection, schedule: Q04DX003 (ip), vehicle: Klucel (hydroxypropylcellulose) (HPC)): 3 of 6
- survivor count (T/C endpoint: mean survival time, dose: 400.0 mg/kg/injection, schedule: Q04DX003 (ip), vehicle: Klucel (hydroxypropylcellulose) (HPC)): 0 of 6

SMILES: [Cl][Sn]([Cl])([c]1ccccc1)[c]1ccccc1
- survivor count (T/C endpoint: mean survival time, dose: 100.0 mg/kg/injection, schedule: Q01DX001 (ip), vehicle: saline): 0 of 3
- survivor count (T/C endpoint: mean survival time, dose: 200.0 mg/kg/injection, schedule: Q01DX001 (ip), vehicle: saline): 0 of 3
- survivor count [7]: 0 of 3

SMILES: CN(C)c1ccc(N=Nc2cccc(C(=O)[O-])c2)cc1.CN(C)c1ccc(N=Nc2cccc(C(=O)[O-])c2)cc1.NC1CCCCC1N.[Pt+4]
- T/C (T/C endpoint: median survival time, dose: 12.5 mg/kg/injection, schedule: Q04DX003 (ip), vehicle: saline with Tween-80): 135 % of control
- T/C (T/C endpoint: median survival time, dose: 100.0 mg/kg/injection, schedule: Q04DX003 (ip), vehicle: saline with Tween-80): 132 % of control
- survivor count (T/C endpoint: median survival time, dose: 200.0 mg/kg/injection, schedule: Q04DX003 (ip), vehicle: saline with Tween-80): 5 of 6

SMILES: CCC(=O)N(C)[C@@H](C)C(=O)O[C@H]1CC(=O)N(C)c2cc(cc(OC)c2Cl)C/C(C)=C/C=C[C@@H](OC)[C@@]2(O)C[C@H](OC(=O)N2)[C@@H](C)[C@@H]2O[C@@]12C
- T/C (T/C endpoint: mean survival time, dose: 10.0 micrograms/kg/injection, schedule: Q01DX009 (ip), vehicle: saline + alcohol): 130 % of control
- survivor count (T/C endpoint: mean survival time, dose: 15.0 micrograms/kg/injection, schedule: Q01DX009 (ip), vehicle: saline + alcohol): 5 of 6
- survivor count (T/C endpoint: mean survival time, dose: 30.0 micrograms/kg/injection, schedule: Q01DX009 (ip), vehicle: saline + alcohol): 2 of 6
- survivor count (T/C endpoint: mean survival time, dose: 60.0 micrograms/kg/injection, schedule: Q01DX009 (ip), vehicle: saline + alcohol): 2 of 6

SMILES: CN(C)CCCNC1CCC(NCCCN(C)C)CC1 (centres undefined)
- survivor count [6]: 5 of 6
- survivor count (T/C endpoint: mean survival time, dose: 100.0 mg/kg/injection, schedule: Q01DX009 (ip), vehicle: saline): 1 of 6
- survivor count (T/C endpoint: mean survival time, dose: 200.0 mg/kg/injection, schedule: Q04DX003 (ip), vehicle: saline): 6 of 6
- survivor count [9]: 0 of 6

SMILES: C=C1C(=O)OCC1C(=O)O (centres undefined)
- survivor count (T/C endpoint: mean survival time, dose: 64.0 mg/kg/injection, schedule: Q01DX009 (ip), vehicle: saline): 3 of 6
- survivor count (T/C endpoint: mean survival time, dose: 128.0 mg/kg/injection, schedule: Q01DX009 (ip), vehicle: saline): 0 of 10 and 0 of 6

SMILES: COc1ccccc1C(=O)NS(=O)(=O)c1ccc(Cl)cc1
- survivor count (T/C endpoint: mean survival time, dose: 400.0 mg/kg/injection, schedule: Q01DX009 (ip), vehicle: acetone): 0 of 6

SMILES: CC(C)(C)N1CC1CNC(=O)C(=O)NCC1CN1C(C)(C)C (centres undefined)
- T/C [10]: 137 % of control (2×)
- T/C (T/C endpoint: mean survival time, dose: 25.0 mg/kg/injection, schedule: Q01DX009 (oral), vehicle: saline with Tween-80): 135 % of control
- survivor count (T/C endpoint: mean survival time, dose: 50.0 mg/kg/injection, schedule: Q01DX009 (oral), vehicle: saline with Tween-80): 2 of 6
- survivor count (T/C endpoint: mean survival time, dose: 100.0 mg/kg/injection, schedule: Q01DX009 (oral), vehicle: saline with Tween-80): 3 of 6
- T/C (T/C endpoint: median survival time, dose: 3.13 mg/kg/injection, schedule: Q01DX009 (ip), vehicle: saline with Tween-80): 129 % of control
- survivor count (T/C endpoint: median survival time, dose: 50.0 mg/kg/injection, schedule: Q01DX009 (ip), vehicle: saline with Tween-80): 6 of 10 and 10 of 10

SMILES: O=c1cnn(C2OC(CO)C(O)C2O)c(=O)[nH]1 (centres undefined)
- T/C [4]: 135 % of control
- T/C [5]: 133 % of control
- T/C (T/C endpoint: mean survival time, dose: 25.0 mg/kg/injection, schedule: Q03HX024 (ip), vehicle: saline): 132 % of control [5 of 6 alive]
- T/C [6]: 131 % of control
- survivor count (T/C endpoint: mean survival time, dose: 100.0 mg/kg/injection, schedule: Q03HX024 (ip), vehicle: saline): 2 of 6
- T/C (T/C endpoint: mean survival time, dose: 143.0 mg/kg/injection, schedule: Q03HX024 (ip), vehicle: other): 148 % of control
- T/C (T/C endpoint: mean survival time, dose: 200.0 mg/kg/injection, schedule: Q01DX009 (ip), vehicle: distilled water + Tween-80): 130 % of control
- T/C [11]: 127 and 129 % of control
- survivor count (T/C endpoint: mean survival time, dose: 200.0 mg/kg/injection, schedule: Q03HX024 (ip), vehicle: saline): 2 of 6
- T/C (T/C endpoint: mean survival time, dose: 300.0 mg/kg/injection, schedule: Q03HX016 (ip), vehicle: other): 129 % of control
- T/C (T/C endpoint: mean survival time, dose: 400.0 mg/kg/injection, schedule: Q01DX005 (ip), vehicle: water, evaluated on day 20): 130 % of control
- T/C (T/C endpoint: mean survival time, dose: 400.0 mg/kg/injection, schedule: Q01DX005 (ip), vehicle: water, evaluated on day 30): 127 % of control
- T/C (T/C endpoint: mean survival time, dose: 400.0 mg/kg/injection, schedule: Q01DX009 (ip), vehicle: distilled water + Tween-80): 140 % of control
- T/C (T/C endpoint: mean survival time, dose: 400.0 mg/kg/injection, schedule: Q01DX009 (ip), vehicle: saline): 130 and 136 % of control
- T/C (T/C endpoint: mean survival time, dose: 800.0 mg/kg/injection, schedule: Q01DX005 (ip), vehicle: water, evaluated on day 20): 143 % of control
- T/C (T/C endpoint: mean survival time, dose: 800.0 mg/kg/injection, schedule: Q01DX005 (ip), vehicle: water, evaluated on day 30): 131 % of control
- T/C [12]: 127 and 133 % of control
- survivor count [12]: 6 of 6
- T/C (T/C endpoint: mean survival time, dose: 1600.0 mg/kg/injection, schedule: Q01DX009 (ip), vehicle: saline): 127 % of control [5 of 6 alive]

SMILES: CCOc1ccc(-n2c(O)c(N=Nc3ccccc3)c(=O)n(-c3ccccc3)c2=S)cc1
- survivor count [2]: 0 of 6

SMILES: COC(=O)C(CCCCN=Cc1ccccc1O)N=Cc1ccccc1O.[Ni] (centres undefined)
- survivor count [8]: 5 of 6

SMILES: COC1CCCC[CH]1[Hg][Br] (centres undefined)
- survivor count [10]: 1 of 3
- survivor count [3]: 1 of 3

SMILES: N#CCC(N)=S
- survivor count [1]: 0 of 6
- survivor count [8]: 0 of 6
- survivor count (T/C endpoint: mean survival time, dose: 400.0 mg/kg/injection, schedule: Q01DX009 (ip), vehicle: saline with Tween-80): 0 of 6

SMILES: CCOC(CNCc1cccc(OC)c1)OCC
- survivor count [7]: 0 of 6

SMILES: COCCCN1CCN(c2ccccc2OC)CC1
- survivor count [11]: 0 of 6
- survivor count [9]: 0 of 6

SMILES: Nc1ccn(C2OC(CO)C3[O][Sn]([c]4ccccc4)([c]4ccccc4)[O]C32)c(=O)n1 (centres undefined)
- survivor count (T/C endpoint: mean survival time, dose: 25.0 mg/kg/injection, schedule: Q01DX005 (ip), vehicle: other): 0 of 6
- survivor count (T/C endpoint: mean survival time, dose: 50.0 mg/kg/injection, schedule: Q01DX005 (ip), vehicle: other): 0 of 6
- survivor count (T/C endpoint: mean survival time, dose: 100.0 mg/kg/injection, schedule: Q01DX005 (ip), vehicle: other): 0 of 6
- survivor count (T/C endpoint: mean survival time, dose: 200.0 mg/kg/injection, schedule: Q01DX005 (ip), vehicle: other): 0 of 6
